Values of other authors as cited in patent US20140212515A1, “COMPOSITION AND METHODS FOR OPTIMIZING HEALTH OF CANCER PATIENTS BY THE ADMINISTRATION OF SODIUM SELENITE AND VITAMIN K3” (priority 2013, published 2014).
At least one structure is not confirmed: it was looked up by name or label, or the drawing left a doubt.

Key:
lymphoma patients = conditions: high dose, chemotherapy adjuvant
mesothelioma lines = conditions: in vitro, selenite exposure
glioma cells = conditions: superoxide anion generated by selenite, mitochondrial damage and mitophagy

O=[Se](O)O [sodium selenite]
P53 in prostate cancer cells (prostate cancer cells): induction of P53 | percentage of bone marrow infiltration (lymphoma patients): decreased percentage of bone marrow infiltration | percentage of reduction of cervical and axillary lymphadenopathy (lymphoma patients): statistically significant increase | splenic size (lymphoma patients): decrease in splenic size | apoptosis in mesothelioma lines (mesothelioma lines): increased apoptosis | cell death in glioma cells (glioma cells): irreversible cell death
